# Most values lie at the floor of the assay. Slopes are relative: functional sequences can read slightly below zero.
# System: Saccharomyces cerevisiae PS128 hsf1 delta, HSF1(1-493) fusion
# Assay: growth estimate (transactivation domain function in HSF1 fusion, heat-shock survival) (a.u. (slope of normalised read count over time)); higher = stronger growth at 37°C, i.e. more transactivation activity
# Details: library: random library
# Protocol: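 Random 60-nt DNA library encoding peptides of up to 20 aa, fused to the C-terminus of yeast HSF1 residues 1-493 (C-terminal TAD deleted) and expressed from the native HSF1 promoter on a CEN plasmid in hsf1-deleted S. cerevisiae PS128. Cells were selected at 37°C on -trp 5-FOA plates for 0, 2, 4, 6 and 8 days and amplicons were sequenced. Growth estimate is the slope of a robust linear fit of total-sum-normalised read counts (normalised to the first time point) over time, using at least 2 replicates. Sequences are classed functional (TAD activity) above a threshold of -0.13, set from stop-codon control sequences.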
row,Substance,growth estimate
1,AAADAHCGRQQAVQ,< -0.25
2,AACKQGLGIEFDGLFPM,< -0.25
3,AACYP,-0.209
4,AADIASQEARARSYQFAE,< -0.25
5,AADWEFSCAKGKCAGGGGLW,< -0.25
6,AAEDGNDLLIFLDTRRDRRT,< -0.25
7,AAEEHG,< -0.25
8,AAEVRSGDPHNGGALTLWVI,< -0.25
9,AAEYIHESKRKSSRSRKVIA,< -0.25
10,AAGFGNPLVNGIDLDRELRA,< -0.25
11,AAGGRRATG,< -0.25
12,AAGHYGTVVGQ,< -0.25
13,AAGLVQIAPGYPA,< -0.25
14,AAGYYIPGLLCRVPHGEHFP,< -0.25
15,AAIGTSRLEWCYVHPFQTLS,< -0.25
16,AALDAPERDR,< -0.25
17,AALRYSSRNGHIGNVFDLG,< -0.25
18,AANGEIGSYADVRLPWRRPN,< -0.25
19,AAPNRDFPELSLLNFLGHGR,-0.176
20,AARARDLPVPA,< -0.25
21,AARGSNAMQYAKLLPEYCLC,< -0.25
22,AARSEGLGYASKIQVRGVKR,< -0.25
23,AASYGL,< -0.25
24,AATY,< -0.25

row,Substance,growth estimate
1,AAV,< -0.25
2,AAVGDKGGGSLGAARDEGTP,< -0.25
3,AAVHGLHVGRF,< -0.25
4,AAVTVL,< -0.25
5,AAVWGNGTGGTRVWLTPAFR,< -0.25
6,AAWLRYTIRA,< -0.25
7,AAYSGYQLEQRMSELAERHS,< -0.25
8,ACCRM,< -0.25
9,ACDQRDGARVSCHHR,< -0.25
10,ACEVPGGSGSLIVVGGLSAP,< -0.25
11,ACFEVVPMAV,< -0.25
12,ACGGDIHVYRVLHGGCARGP,< -0.25
13,ACGPFVRCYLKRLGWDTRIT,< -0.25
14,ACIGSRRLQQITTDPVRACY,< -0.25
15,ACIYAPDVFRNW,-0.224
16,ACKDILQSKLETPNFKSPNC,< -0.25
17,ACLFKVAPVVRYIGLGSIRW,< -0.25
18,ACLNLLDSRQRKVRRVSKLG,< -0.25
19,ACMHVKLSLVTCVVLHGRDH,< -0.25
20,ACPCPGVATQMLFCLTTTRP,< -0.25
21,ACPHERGSADFIPPIADNDL,< -0.25
22,ACPPTCRIPESRGLGPRVTP,< -0.25
23,ACR,< -0.25
24,ACRACIGLLTYFGQYTRRMA,< -0.25

# Part of the list above, as tab-separated lines:
row	Substance	growth estimate
3	AAVHGLHVGRF	< -0.25
14	ACIGSRRLQQITTDPVRACY	< -0.25
15	ACIYAPDVFRNW	-0.224
18	ACLNLLDSRQRKVRRVSKLG	< -0.25
20	ACPCPGVATQMLFCLTTTRP	< -0.25
21	ACPHERGSADFIPPIADNDL	< -0.25
24	ACRACIGLLTYFGQYTRRMA	< -0.25

# More results:

row,Substance,growth estimate
1,ACRGGQVLKEVLTDRNCVRL,< -0.25
2,ACRGGTIDRKSWPHRGLGSP,< -0.25
3,ACSAPCTLSAVSCRQLVNSL,0.109
4,ACSTGGGRLRAAWQRGVFNL,< -0.25
5,ACSVSRPHIRRPARPRGVTL,< -0.25
6,ACTSGYANREAASSNLEDAL,< -0.25
7,ACV,-0.0632
8,ACVGRPPGCSINCGT,-0.243
9,ACWFWVKSSKCV,< -0.25
10,ACWTR,< -0.25
11,ADA,< -0.25
12,ADANPTGSRLVGFGMVHNGV,< -0.25
13,ADCSVACTDDHSFAPPTFHR,< -0.25
14,ADEYVRYAFRRTFLSSWSRN,< -0.25
15,ADGPITLEVMTIPQ,< -0.25
16,ADHSLRRGQATLFEFLHVY,< -0.25
17,ADIADRDPKAVNAVECLIHV,< -0.25
18,ADMGIQVSLTLLMG,< -0.25
19,ADPIRSLCGLFFSAH,-0.229
20,ADRTFEWQCHFRTFE,< -0.25
21,ADSAGLLGPSTNS,-0.248
22,ADTRVSGVFRGSASVLLVWP,< -0.25
23,ADTSWLKSGTGYWSGLL,-0.197
24,ADVECG,< -0.25

# For convenience, some entries already given.
row,Substance,growth estimate
9,ACWFWVKSSKCV,< -0.25
10,ACWTR,< -0.25
11,ADA,< -0.25
12,ADANPTGSRLVGFGMVHNGV,< -0.25

# The list continues:

row,Substance,growth estimate
1,ADVVESCLQP,< -0.25
2,ADYGE,< -0.25
3,AEDANRGQHNSSVSPPCAGL,< -0.25
4,AEEDLEGFGGEGGFKACKYF,< -0.25
5,AEGGGIDATSESVATVHTIM,< -0.25
6,AEGRINDSRVRESIGEHRMQ,< -0.25
7,AEGWRGARGNCCHHSCAFH,< -0.25
8,AEGYAILNSGYQWQLINGDG,< -0.25
9,AEKDHLPLLSGARRRGFN,< -0.25
10,AEKRELVPSRPFKYRGECAQ,< -0.25
11,AEKTGGFRLDPAGSAHIASL,< -0.25
12,AEKVLKYMTLRWTSLA,< -0.25
13,AEMDLEHVGARSNWLTGSLA,< -0.25
14,AENVANCQIVRKPFCLDPLN,< -0.25
15,AER,< -0.25
16,AERNVE,< -0.25
17,AERTVAPDIQDIGKERTRGL,< -0.25
18,AESELISRPNTDLDFVLTST,< -0.25
19,AESEQCKPSWCPRVPSLTKN,< -0.25
20,AESLISSWCSCAE,< -0.25
21,AESREDWQWGRKTIKNARQV,< -0.25
22,AESRSG,< -0.25
23,AESWNPAGKAIWEENSG,< -0.25
24,AETKKKV,-0.245

# Pulled one by one from the list above (2):
row,Substance,growth estimate
19,AESEQCKPSWCPRVPSLTKN,< -0.25
8,AEGYAILNSGYQWQLINGDG,< -0.25

# Remaining list, next part.

row,Substance,growth estimate
1,AEVCYHGPLRPTCDRGLRAQ,< -0.25
2,AEYVHVKLHGRELE,< -0.25
3,AFERPRSTRVGW,< -0.25
4,AFFTKSALK,< -0.25
5,AFGAFPASDEGSWTTFVYGI,< -0.25
6,AFGVTLSRRFLNQRHGDCWG,< -0.25
7,AFLSDASSRSGKPHRWRTRQ,< -0.25
8,AFLTSESL,< -0.25
9,AFPLLGLTVGAQIGRALSAG,< -0.25
10,AFPNAHRDHVDEPRCFKRQA,< -0.25
11,AFQNAQ,< -0.25
12,AFRDGLRFSERCDLQFQIAF,< -0.25
13,AFRWRKVISGVGILARRRWP,< -0.25
14,AFSREDASFDEVKGPG,-0.246
15,AFTKC,< -0.25
16,AFTWGGCGGKTHILLAFIRR,< -0.25
17,AFVGWAGVWTRDGMSATLAN,< -0.25
18,AFWCL,< -0.25
19,AFYRATFPPCRYAGVQLNME,< -0.25
20,AGA,< -0.25
21,AGAESLWYRNLYGDGCSLAA,< -0.25
22,AGARPRSAA,< -0.25
23,AGATSSLYGQGKLSAYYWGD,< -0.25
24,AGCFSTVDQ,< -0.25

row,Substance,growth estimate
1,AGCKQSLSGQPLPAPTQGFH,< -0.25
2,AGDRICVCRIVTQKVHRHCR,< -0.25
3,AGDS,< -0.25
4,AGGANDMAWRSREITTSLPH,< -0.25
5,AGGAVEYRLENCANLPHTGR,< -0.25
6,AGGLGRGSLIFEHNRINPPL,< -0.25
7,AGGLLFAHSLSLRGVLSGTM,< -0.25
8,AGGTGRTLQELCTTG,< -0.25
9,AGH,< -0.25
10,AGIWYVEPTAAQGCGD,< -0.25
11,AGIYHRLHVYPLIPRMLAGL,-0.246
12,AGKDLEPAI,< -0.25
13,AGKEDFLGLSSRNPVS,< -0.25
14,AGKVSPSVTA,< -0.25
15,AGLA,-0.237
16,AGLTLLSSRFPGPSSIGKIA,-0.248
17,AGLTSISIDIGTLCRILCLL,< -0.25
18,AGLWFLFCDWSR,< -0.25
19,AGMKPGSSGNAV,< -0.25
20,AGNFGKICAREAHMSTPEAG,< -0.25
21,AGPPRGGAEWLVLCENNQQG,< -0.25
22,AGQFKSFVHT,< -0.25
23,AGQYSRTRARVFHAFIPAVR,< -0.25
24,AGRENHRVWEGWSWPETVSE,-0.0372

row,Substance,growth estimate
1,AGRPG,-0.25
2,AGRTCVGVRQDAQGSRVVAW,< -0.25
3,AGRWLSIE,< -0.25
4,AGSGP,-0.246
5,AGSLCVRSQ,< -0.25
6,AGSLSS,< -0.25
7,AGSRAVL,-0.243
8,AGSVRYVEDCEFEPL,< -0.25
9,AGSVSPHSPTDARINAVLWT,< -0.25
10,AGTGHRVNTKDQLEGGPARP,< -0.25
11,AGTLHLWDGAS,< -0.25
12,AGTSKSS,< -0.25
13,AGTVRRVRVREPCIKVHQRQ,< -0.25
14,AGVCPLALTLIRCRIVLSAW,< -0.25
15,AGVESRWVYDKCVRSSCSCS,< -0.25
16,AGVESTYTMMQCTGDYVRDA,< -0.25
17,AGVIGSPDRQCFYRLEPLHR,< -0.25
18,AGVR,< -0.25
19,AGYAAKVLRIDWWGREVIRG,< -0.25
20,AGYRE,< -0.25
21,AHAEHKPPVYLNLRPDFQAQ,< -0.25
22,AHAGDDLHRSVPGGRALNGG,< -0.25
23,AHAS,< -0.25
24,AHDGGCLVARS,< -0.25

row,Substance,growth estimate
1,AHF,< -0.25
2,AHGQAL,< -0.25
3,AHGSLPPAFSTGNFRCHGRI,< -0.25
4,AHIA,< -0.25
5,AHMCRRGGRGVGSPGVAESK,< -0.25
6,AHQPKQVEGKKADLG,< -0.25
7,AHRG,< -0.25
8,AHTHRSLLKGIAQRESAMTP,< -0.25
9,AHTL,-0.243
10,AHTWKSMLPRSRSLSNQTLV,< -0.25
11,AIAKEDWHINLLGQKIFAWF,< -0.25
12,AIARGA,< -0.25
13,AIDLVWKITTKNG,< -0.25
14,AIDSRLDDVLRWEIPRAGTS,-0.217
15,AIENMPCSGRT,< -0.25
16,AIGEQPVMGLLPGGSKVFTR,-0.0726
17,AIGIRPQRRLGYPVLRLHHC,< -0.25
18,AIGQNGVDGGPSACWLLGHT,< -0.25
19,AIHALMQVYIPECCRYQGTV,-0.242
20,AIKRDRLVKYEDSLSVLGL,< -0.25

# Source: the supplement of paper PMC5949888
